The values below come from PMC7216731.

By UniProt entry, the sequences of proteins in these tests, tags left out. Residues count along the entry.
UniProt P13128, residues 25-529: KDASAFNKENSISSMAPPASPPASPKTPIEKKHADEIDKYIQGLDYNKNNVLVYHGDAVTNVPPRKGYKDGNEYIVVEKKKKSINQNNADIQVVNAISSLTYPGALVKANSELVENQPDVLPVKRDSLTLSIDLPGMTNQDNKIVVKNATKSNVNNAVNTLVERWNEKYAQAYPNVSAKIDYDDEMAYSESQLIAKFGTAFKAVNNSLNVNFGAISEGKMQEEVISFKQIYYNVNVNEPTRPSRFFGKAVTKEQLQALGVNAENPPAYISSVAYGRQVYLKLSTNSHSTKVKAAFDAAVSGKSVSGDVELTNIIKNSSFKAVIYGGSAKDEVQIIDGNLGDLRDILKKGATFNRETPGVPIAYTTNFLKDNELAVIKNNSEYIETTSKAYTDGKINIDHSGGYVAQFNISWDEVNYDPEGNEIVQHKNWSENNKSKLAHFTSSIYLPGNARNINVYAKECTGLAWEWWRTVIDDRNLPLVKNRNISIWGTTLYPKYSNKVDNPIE

Results are given in words; binding and its absence hold for the method and conditions named. Some results given as binding are weak or reduced against the parent protein; the word gives no strength.

This experiment addresses Listeriolysin O (Listeria monocytogenes) (UniProt P13128). Kind of experiment: oligomer bands on SDS-PAGE without reducing agent, Western blot with anti-LLO; purified LLO in acidic PBS (pH 5.5), oligomerization induced with potassium chloride (high salt), sheep erythrocytes added, 5 min on ice, boiled in loading buffer lacking 2-hydroxy-1-ethanethiol; with or without morin (64 ug/mL), which decreased the oligomers; both purified.

For the substance “Listeriolysin O (from UniProt P13128 25-529)”, the binding result is “binds”.
